# Data as given in PubChem BioAssay AID504808 (Drosophila RNAi Screening Center, 2011).
# Purpose: 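Genes whose loss lifts activity of an E2F-responsive reporter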 (primary screen)
# Cells: Drosophila S2 cells
# Reagents: long dsRNA against Drosophila genes
# Detection: 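Firefly luciferase driven by E2F sites, normalised to Renilla luciferase on the same minimal promoter, measured by plate reader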
# Direction: E2F firefly: higher = more E2F reporter activity; Renilla normaliser: higher = more normaliser reporter signal
# Rule for the call: 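Called active if the normalised E2F reporter went up by over 50%; the cutoff is arbitrary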
# The screen tested about 21,000 reagents; shown is an unselected part of those that have a named target and a result. Of all reagents, 18 (0.084%) got an active call. 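Raw counts without plate normalisation, one of two replicates; the ratio scores behind the calls were not deposited.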 No sequences are given here. The record does not give: the amount of reagent, the time to read-out.
gene,DRSC id,"E2F firefly, rep 1","Renilla normaliser, rep 1",Call
Ugt302E1,DRSC15635,1.36e5,6984,inactive
CG10183,DRSC14203,96434,5687,inactive
Cog8,DRSC02961,90494,5108,inactive
Ggamma1,DRSC07435,2608,219,inactive
CG2641,DRSC15441,1.29e5,6135,inactive
CG8195,DRSC07103,73213,3652,inactive
CG12376,DRSC06144,2742,201,inactive
CG1785,DRSC18139,7026,780,inactive
Miro,DRSC15795,69875,3951,inactive
CG6602,DRSC10673,1.10e5,4367,inactive
Phae2,DRSC02555,92283,4178,inactive
Tsp2A,DRSC18584,97816,5124,inactive
CG12477,DRSC09886,1.67e5,8989,inactive
shakB,DRSC20492,97383,6306,inactive
shakB,DRSC20585,1.37e5,7945,inactive
Polr2H,DRSC11642,57527,3505,inactive
CG9107,DRSC03138,89639,3145,inactive
Naa30B,DRSC08245,88595,4284,inactive
CG43317,DRSC15000,1.14e5,6587,inactive
CG12869,DRSC06208,1.05e5,4262,inactive
Cow,DRSC13601,53467,3757,inactive
Cow,DRSC14680,1.10e5,5787,inactive
PSMG1,DRSC12297,70276,4080,inactive
Aldh-III,DRSC06047,88845,118,inactive
AnxB11,DRSC19331,6718,812,inactive
Dsk,DRSC12347,1.39e5,6827,inactive
arg,DRSC18737,1964,808,inactive
CG17752,DRSC15262,1.49e5,8074,inactive
Fit2,DRSC10908,77243,3423,inactive
ppk12,DRSC04086,1.01e5,4720,inactive
unk,DRSC17093,66936,4366,inactive
CG7420,DRSC00704,79541,3088,inactive
Lipt2,DRSC12338,88667,3325,inactive
veg (retired record),DRSC07714,1.44e5,5484,inactive
RluA-2,DRSC02939,79962,3005,inactive
CG14459,DRSC11719,57736,3471,inactive
Eglp1,DRSC04502,83279,3265,inactive
CG7546,DRSC08885,1.30e5,5081,inactive
CG7546,DRSC10871,64805,3947,inactive
Ugt49B1,DRSC04461,1.03e5,4715,inactive
CG31809,DRSC01561,1.41e5,5637,inactive
mRpL3,DRSC20100,2.41e5,5883,inactive
Ppt2,DRSC02786,95607,3657,inactive
CG1902,DRSC06798,2622,210,inactive
Smyd4-1,DRSC06785,3458,92,inactive
Sur-8,DRSC15794,1.01e5,6274,inactive
Ras85D,DRSC16814,1.43e5,5066,inactive
CG9896,DRSC03962,1.26e5,4350,inactive
CG9896,DRSC04594,96658,3986,inactive
CG12020,DRSC08226,97985,4226,inactive
CG6126,DRSC15971,73542,2756,inactive
snf,DRSC18835,6984,956,inactive
CG11342,DRSC08175,85034,3792,inactive
blow,DRSC07586,3145,185,inactive
CG3803,DRSC04420,91397,3896,inactive
CG3407,DRSC00603,69865,4065,inactive
Raf,DRSC18821,1.06e5,4985,inactive
Mvl,DRSC16752,72295,3327,inactive
Irp-1B,DRSC16720,1.53e5,6473,inactive
epsilonTry,DRSC07611,1.14e5,4862,inactive
Corp,DRSC17771,7895,796,inactive
AspRS,DRSC05914,3011,203,inactive
Obp19d,DRSC20569,1.40e5,5451,inactive
CG43386,DRSC17980,1.31e5,6443,inactive
CG32576,DRSC19136,84053,2638,inactive
Lcp65Ad,DRSC11211,1.02e5,4155,inactive
Fbxl7,DRSC15553,1.21e5,6275,inactive
CG7668,DRSC10901,81194,3107,inactive
CG7968,DRSC01903,94222,4759,inactive
Pop2,DRSC10537,79675,4119,inactive
CG14879,DRSC15003,1.20e5,6071,inactive
Dhc1,DRSC16503,1.47e5,6547,inactive
CG30060,DRSC05419,1.36e5,5004,inactive
hgo,DRSC03544,1.45e5,5861,inactive
Trc8,DRSC15437,1692,1047,inactive
nec,DRSC06769,1.33e5,4710,inactive
bru1,DRSC01234,71045,3812,inactive
bru1,DRSC01236,1.04e5,4724,inactive
bru1,DRSC01237,1.46e5,7550,inactive
bru1,DRSC01238,1.31e5,6428,inactive
bru1,DRSC03485,65200,3365,inactive
CG11113,DRSC06039,1.55e5,5520,inactive
fzo,DRSC16954,1.04e5,6390,inactive
SF2,DRSC16845,1.24e5,6825,inactive

Records listed so far whose gene name starts with M or m (3):
gene,DRSC id,"E2F firefly, rep 1","Renilla normaliser, rep 1",Call
Miro,DRSC15795,69875,3951,inactive
mRpL3,DRSC20100,2.41e5,5883,inactive
Mvl,DRSC16752,72295,3327,inactive
